Reference: doi:10.1101/2025.03.10.642062
No constants are given. Whether binding was seen depends on the method and setting. In cells and extracts the contact can be indirect. A yes stands for co-enrichment or nearness to the bait. Other partners may have been found. No binding means not detected with the bait. Tags and fused reporters may be left off the sequences shown. Each block holds one molecule with its values, some of them ahead of it.

Target: T1, 4xmyc-ING2 (Arabidopsis INHIBITOR OF GROWTH 2) (Arabidopsis) (UniProt B3H615)
T1 sequence: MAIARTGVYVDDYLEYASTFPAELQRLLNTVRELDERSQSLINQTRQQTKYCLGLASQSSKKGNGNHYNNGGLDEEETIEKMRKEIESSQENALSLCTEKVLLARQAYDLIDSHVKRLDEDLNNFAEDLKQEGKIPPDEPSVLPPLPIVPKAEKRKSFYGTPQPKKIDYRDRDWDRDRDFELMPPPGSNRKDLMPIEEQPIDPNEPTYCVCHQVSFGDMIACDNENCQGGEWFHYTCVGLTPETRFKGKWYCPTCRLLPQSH
Experiment: affinity purification with mass spectrometry

- binding: no binding
Molecule: Histone Deacetylase Complex 1 (HDC1) (Arabidopsis (endogenous in seedlings))

- binding: no binding
B1: SHORT LIFE (SHL) (protein, UniProt Q9FEN9 1-228)
chain: MPKQKAPRKQLKSYKLKHINKSIQEGDAVLMRSSEPGKPSYVARVEAIETDARGSHAKVRVRWYYRPEESIGGRRQFHGAKEVFLSDHFDFQSADTIEGKCKVHSFSSYTKLDSVGNDDFFCRFEYNSTTGAFDPDRVTVFCKCEMPYNPDDLMVQCEECSEWFHPSCIGTTIEEAKKPDNFYCEECSPQQQNLHNSNSTSNNRDAKVNGKRSLEVTKSKNKHTKRPG
